# Measured values: article PMC12040169 (PLOS Biology, 2025)
# This is one part of the list.
# Test system: T1, CTL2-GFP (C. trachomatis L2/434/Bu, GFP-expressing)
# T1 construct: L2/434/Bu, GFP-expressing
# Set-up: species or system HeLa; Intracellular C. trachomatis growth in HeLa cells, bulk GFP fluorescence relative to DMSO
# Conditions: bulk GFP, single well; 28.5 h, 10 µM; inhibitor
row,Structure (SMILES),% of control remaining [%]
1,Cc1nnc2n1CCN(C(=O)CC1OCCc3sccc31)C2 (centres unmarked) [CBK304956],130.441
2,CC(=O)c1ccccc1-c1ccc(C(=O)N2CCN(C)CC2)c(NCC2CC2)n1 [CBK076613],157.177
3,O=C(c1cc2c(s1)CCCC2)N1CCCCC1c1nnc(-c2nccc3ccccc23)o1 (centres unmarked) [CBK285577],121.917
4,O=C(OCc1ccccc1)N1CCC2(CC1)CN(c1ccc(C(F)(F)F)cn1)CCO2 [CBK161116T],88.947
5,Cc1ccccc1C(NC(=O)C1CCN(C(=O)CCC2CCCC2)CC1)c1ccccn1 (centres unmarked) [CBK059677],102.887
6,S=C(Nc1ccc(Nc2ccccc2)cc1)N1CCN(Cc2ccc3c(c2)OCO3)CC1 [CBK266141],137.95
7,O=C(Cc1cccc(F)c1)N1C2CCC1CC(O)(c1ccco1)C2 (centres unmarked) [CBK284138],120.349
8,COCCOCC(=O)N1CC(=O)N(c2ccccc2C#N)CC1C (centres unmarked) [CBK307258],128.648
9,CCN(CC(=O)NCc1ccc(C)cc1)S(=O)(=O)c1ccc(C)cc1 [CBK267511],105.345
10,O=C(c1cccnc1)C1CCN(C(=O)Cc2ccc(F)cc2)CC1 [CBK283515],131.149
11,CCCc1nc(-c2ccc3c(c2)CCCN3S(C)(=O)=O)cs1 [CBK306253],115.215
12,CCC1CCCCN1C(=O)c1cc(Br)c(Br)s1 (centres unmarked) [CBK089360],65.7661
13,S=C(NCCc1ccccc1)NCCn1cc(Cl)cn1 [CBK266912],105.475
14,Cc1c(Cl)cccc1NC(=S)NNC(=O)C(C)Oc1ccc(F)cc1F (centres unmarked) [CBK266823],123.804
15,CCOc1ccc(CSC2=NCCN2)cc1Cl [CBK027449C],100
16,CN(CCOC(=O)c1cccnc1)C(C)(C)C [CBK027543C],151.998
17,CC1(C)CCN(Cc2ccccc2)C1CC#N (centres unmarked) [CBK006978C],98.5116
18,Cc1ccc(OCCn2ccnc(N3CCNCC3)c2=O)c([N+](=O)[O-])n1 [CBK001381C],128.176
19,CC(Cn1cncn1)NS(=O)(=O)c1cccc(C(=O)N2CCCCC2)c1 (centres unmarked) [CBK306594],98.8053
20,CC(C)Nc1nc2ccccc2nc1SCCc1ccncc1 [CBK103670],96.4517
21,COc1nccnc1N1CCN(CC(=O)Nc2c(C)cccc2C)CC1 [CBK084220],99.4319
22,COc1ccc(/C=N/NC(=O)c2cc[nH]n2)cc1CSc1nc2ccccc2s1 [CBK263734],116.172
23,O=C(Nc1nnc(-c2ccco2)o1)C(c1ccccc1)c1ccccc1 [CBK287424],137.764
24,Cn1c(SCc2cc(-c3ccc(Cl)cc3)no2)nnc1-c1ccco1 [CBK295193],155.521
25,Cc1ccc(C(=O)N2CCN(c3ccc(NC(=O)c4ccc(-c5cccc([N+](=O)[O-])c5)o4)cc3)CC2)cc1 [CBK266355],108.219

# Another view of 2 compounds above:
row	Structure (SMILES)	% of control remaining [%]
5	Cc1ccccc1C(NC(=O)C1CCN(C(=O)CCC2CCCC2)CC1)c1ccccn1 (centres unmarked) [CBK059677]	102.887
6	S=C(Nc1ccc(Nc2ccccc2)cc1)N1CCN(Cc2ccc3c(c2)OCO3)CC1 [CBK266141]	137.95

# (next part)

row,Structure (SMILES),% of control remaining [%]
1,CCCc1[nH]nc(O)c1Cc1ccc(F)cc1F [CBK075015],109.36
2,NC(=O)C1(N2CCCCC2)CCN(C(=O)CSc2nnc(-c3ccccc3)n2C2CCCCC2)CC1 [CBK266219],122.13
3,CC(C)(C)c1ccc(N(C2CCNCC2)S(=O)(=O)c2ccc(Cl)cc2Cl)cc1 [CBK165067T],47.4504
4,O=C(c1cn2cc(-c3cccs3)n(CC3CC3)c(=O)c2n1)N1CC(O)C1 [CBK306979],130.575
5,CC1NCCc2c1sc1ccccc21 (centres unmarked) [CBK026032C],107.735
6,CC(Sc1nc2ccccc2[nH]1)C(=O)Nc1ccc(S(N)(=O)=O)cc1 (centres unmarked) [CBK266128],115.177
7,O=C(Cc1ccccc1[N+](=O)[O-])NCCCN1CCOCC1 [CBK265520],120.147
8,Oc1ccccc1-c1n[nH]c(=S)n1-c1ccc(OC(F)(F)F)cc1 [CBK288384],178.914
9,O=C(NCCn1nc(-c2cccs2)ccc1=O)C1CCCCC1 [CBK283837],128.292
10,NC(=O)CSc1nc(NCc2ccccc2)nc(N2CCOCC2)n1 [CBK268923],111.943
11,O=C(CN1C2CCC1CC(O)(c1ccccc1F)C2)NCC1CC1 (centres unmarked) [CBK281942],123.149
12,O=C(N/N=C/c1ccc(O)cc1O)c1[nH]c2ccc([N+](=O)[O-])cc2c1-c1ccccc1 [CBK263328],11.9907
13,COCCn1c(CO)nnc1[C@H]1C[C@@H](NC(=O)c2ccc(C)s2)C1 [CBK307063],167.147
14,Cn1ccnc1C1CCN(C(=O)NCc2cccc(F)c2)CC1 [CBK304606],113.396
15,CCc1nnc(Sc2ccc(C=O)cc2[N+](=O)[O-])[nH]1 [CBK268876],116.175
16,CCOc1ccc(CN2CCN(C(=O)c3cccc(C#N)c3)CC2)cc1 [CBK304527],114.516
17,Cc1ccc(Cn2c(=N)n(CC(=O)c3ccc(Br)cc3)c3ccccc32)cc1 [CBK262979B],100
18,COc1cc2c(cc1OC)CN(C(=O)C1CCN(C)CC1)CC2 [CBK122744],125.198
19,Cc1[nH]c2ccccc2c1/C=N/c1cccc2c(/N=C/c3c(C)[nH]c4ccccc34)cccc12 [CBK261227],100.293
20,COC(=O)c1sc2ncccc2c1NS(=O)(=O)c1cc(Br)ccc1OC [CBK049971],132.374
21,O=C(CSc1ncn(-c2ccccc2)n1)c1ccc(Br)cc1 [CBK027014],108.311
22,O=C(O)c1ccc(Cl)c2c1C1C=CCC1C(c1ccccn1)N2 (centres unmarked) [CBK287087],146.133
23,Cc1ccc(Oc2c([N+](=O)[O-])ncn2C)c(Br)c1 [CBK002819],101.87
24,Cc1cc2cc(C(F)(F)F)nc-2n(CC(=O)NC2CC2)c1 [CBK282888],87.6687
25,O=C(c1ccc2c(c1)CCCO2)N(Cc1ccccn1)CC1CCCO1 (centres unmarked) [CBK307488],173.781
